Measured values as given in patent US4430326A (University Patents, Inc., priority 1981, dated 1984).
Read-outs that look alike come from different tables or passages of the source. Not every detail of the peptide structures is certain; ends, links or a residue may be inferred.

How the values were obtained:
liver adenylate cyclase = liver adenylate cyclase activity in liver plasma membranes, glucagon alone or glucagon-analog mixtures; assay type: biochemical; conditions: (Ka observed - Ka glucagon alone)/1×10^-6 M antagonist; Ka = glucagon concentration inducing 50% adenylate cyclase activity
adenylate cyclase system = conditions: cited from earlier work; for reported action on adenylate cyclase activity (agonist / antagonist): literature reports

## CSCC[C@H](NC(=O)[C@H](CC(C)C)NC(=O)[C@H](Cc1c[nH]c2ccccc12)NC(=O)[C@H](CCC(N)=O)NC(=O)[C@@H](NC(=O)[C@H](Cc1ccccc1)NC(=O)[C@H](CC(=O)O)NC(=O)[C@H](CCC(N)=O)NC(=O)[C@H](C)NC(=O)[C@H](CCCNC(=N)N)NC(=O)[C@H](CCCNC(=N)N)NC(=O)[C@H](CO)NC(=O)[C@H](CC(=O)O)NC(=O)[C@H](CC(C)C)NC(=O)[C@H](Cc1ccc(O)cc1)NC(=O)[C@H](CCCCNC(=S)Nc1ccccc1)NC(=O)[C@H](CO)NC(=O)[C@H](Cc1ccc(O)cc1)NC(=O)[C@H](CC(=O)O)NC(=O)[C@H](CO)NC(=O)[C@@H](NC(=O)[C@H](Cc1ccccc1)NC(=O)[C@@H](NC(=O)CNC(=O)[C@H](CCC(N)=O)NC(=O)[C@@H](N)CO)[C@@H](C)O)[C@@H](C)O)C(C)C)C(=O)N[C@@H](CC(N)=O)C(=O)N[C@H](C(=O)O)[C@@H](C)O [[dHis^1][N^ε -PTC]glucagon, (des-histidine-1) (N^ε -phenylthiocarbamoyl)-glucagon]
Liver adenylate cyclase
  Relative Inhibitory Strength: 0.055
Adenylate cyclase system; fraction of the affinity of endogenous glucagon
  affinity for the adenylate cyclase receptor site relative to endogenous glucagon: 1/18
Adenylate cyclase system; N^ε -Ptc]glucagon
  reported action on adenylate cyclase activity (agonist / antagonist): lack of stimulatory effect
Adenylate cyclase system
  reported action on adenylate cyclase activity (agonist / antagonist): relatively weak inhibitor
